These are yes or no findings as the source states them, for the method shown. Some entries that bind do so weakly or less than the wild type.
Biological target: Fhit domain of C. elegans NitFhit (C. elegans) (UniProt O76463)
Test: crystal structure of NitFhit, 2.8 Å

binding: binds
B1: Fhit domain of C. elegans NitFhit (enzyme, UniProt O76463 297-440, looked up)
chain: GGLKFARFNIPADHIFYSTPHSFVFVNLKPVTDGHVLVSPKRVVPRLTDLTDAETADLFIVAKKVQAMLEKHHNVTSTTICVQDGKDAGQTVPHVHIHILPRRAGDFGDNEIYQKLASHDKEPERKPRSNEQMAEEAVVYRNLM

Reference: patent US20020086331A1
